Measured values published in publication PMC9344042.
Results are given in words; binding and its absence hold for the method and conditions named. In cells and extracts the contact can be indirect. Binding calls can cover weak binding; strength is not graded here. Sequences can lack the tags named with a protein.

Amino acid sequences for entries named in this document (tags omitted). A change or cut given only in a name is not applied to a line headed by its entry.
UniProt Q9UUE3: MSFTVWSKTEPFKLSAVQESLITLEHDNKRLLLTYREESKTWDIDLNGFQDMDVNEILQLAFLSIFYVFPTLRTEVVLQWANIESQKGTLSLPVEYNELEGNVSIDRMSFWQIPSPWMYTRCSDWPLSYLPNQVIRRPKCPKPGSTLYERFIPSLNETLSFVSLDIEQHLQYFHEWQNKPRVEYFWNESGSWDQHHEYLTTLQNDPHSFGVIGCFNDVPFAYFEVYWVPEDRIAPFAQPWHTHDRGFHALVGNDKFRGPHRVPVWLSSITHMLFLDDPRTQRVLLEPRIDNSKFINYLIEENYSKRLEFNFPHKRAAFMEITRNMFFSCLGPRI

Biological target: TAP-tagged Sib3 (S. pombe) (UniProt Q9UUE3)
Test: pull-down; whole cell extracts of S. pombe sib2Δ sib3Δ cells co-expressing Sib3-TAP with Sib2-GFP or GFP alone, grown with Dip (250 μM, 90 min); Sib3-TAP held on IgG-Sepharose 6 Fast-Flow beads; bound fraction immunoblotted with anti-mouse IgG, anti-GFP and anti-α-tubulin

binding: binds
B1: GFP-tagged Sib2 (enzyme, UniProt Q9P7T0 1-431)
chain: MTEPLDLAIIGFGPASLSFLIALHDHSEEPLKNKKIRVFEKLPTFSWHEGMLIPGSNMQISFVKDLATPRDPTSYFTFLNYLHSHGQERLSGFLNMSTLEPSRYEYHDYLCWAASHFSKFVEYNANINKLHYDAATDLYIVGHGDTQWQAKNIIITTGCQPYIPPLYKSVDSPLIVHSSKFMSDHSQKLLRNSKHGILVVGCGQSAAEIWKHCHYSLDPKTPLAMCFRNLAPVPSDSSPFVNSLYFDSHNSHWWYNLPTEARLKGLSVGRTTNYSVVKESLLEEMFKECYLQKLRYGQEFHQIMGDTDIQSIKNEGDHLVVQLTSQMDKSKKPETRKIDVLYVATGYDHESFDVLMSSLFPNSQGAQISEEYCVLNAPSKQGKVYVAGITSNQHGIGETLLSWAAIRAGGLAKELFGPSKPTARVPASYLN
